Experimental data reported in PubChem BioAssay AID1347426 (Functional Genomics Laboratory (NCATS/FGL), 2020).
In all, about 31,000 sequences went through this assay and about 1,400 (4.5%) were called active.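 The calls were made as follows: active = median seed-adjusted z-score above 1 or below -1; inactive = the rest.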 Some of the results follow.

assay: Novel Modifiers of Survival Motor Neuron (SMN) Protein: Gene Identification via Genome-wide siRNA Screen; settings: HEK293T SMN2-luciferase reporter, siRNA knockdown, 72 h; actives lie on both sides;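 also: luminescence tracks full-length SMN protein made from the SMN2 reporter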
How it was run: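 HEK293T cells stably carrying an SMN2 promoter/splicing cassette–luciferase reporter were reverse-transfected with 1 pmol siRNA per well (druggable-genome library, 3 siRNAs per gene) and grown 72 h at 37 °C. Luminescence, normalized to negative-control siRNA and log10-transformed, was scored as MAD.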

**Q.** For ACACUUUUGUUAUAAGCUATT against SKI, which median seed-adjusted z-score is on record?
**A.** inactive: -0.139

**Q.** With GCAUCAUGUUCUCAGCUGUTT against SLC2A6 as the sequence, how does the median seed-adjusted z-score read?
**A.** inactive: 0.616

**Q.** For GAAGAGUACUGAACCUGGATT against GTF2H4, which median seed-adjusted z-score is on record?
**A.** inactive: -0.261

**Q.** For GACUCAAUGGUUUGCAUUATT against CTDP1, which median seed-adjusted z-score is on record?
**A.** active: -2.29

**Q.** Which median seed-adjusted z-score does the source give for CAAUAGUUGACUACAUAGATT against 10-Sep here?
**A.** inactive: 0.571

**Q.** With GAGAGACGGUGAAUAAAAATT against METTL6 as the sequence, how does the median seed-adjusted z-score read?
**A.** inactive: -0.415

**Q.** For CAGUGAGACAUCUAAGAGATT against ACSM2A, which median seed-adjusted z-score is on record?
**A.** inactive: -0.178

**Q.** Which median seed-adjusted z-score does the source give for AGGCUGAACGUCUCACUGATT against SPRR1A here?
**A.** inactive: -0.0536

**Q.** Which median seed-adjusted z-score does the source give for CAGUAGUUCUUCUAAUCCATT against WWP1 here?
**A.** inactive: -0.442

**Q.** Which median seed-adjusted z-score does the source give for CAACUAUGUGCAUUAAGGATT against CYP4F22 here?
**A.** inactive: 0.383

**Q.** With GAAUUGAAACGAGCUAGAATT against TAF13 as the sequence, how does the median seed-adjusted z-score read?
**A.** inactive: -0.919

**Q.** With CAACGAGAGCGGUGAAGAATT against CCR2 as the sequence, how does the median seed-adjusted z-score read?
**A.** inactive: -0.00107

**Q.** With CAACGGACGUGGAAAUACUTT against UPF1 as the sequence, how does the median seed-adjusted z-score read?
**A.** inactive: 0.253

**Q.** Which median seed-adjusted z-score does the source give for GGAGAAGAUACAAAGCGCATT against MED21 here?
**A.** active: -1.3

**Q.** For GCAGUAUAGAGGUAUCUGUTT against FUBP3, which median seed-adjusted z-score is on record?
**A.** inactive: 0.108

**Q.** With AGCAGAUGCUCUACACCAATT against ARHGAP27 as the sequence, how does the median seed-adjusted z-score read?
**A.** inactive: -0.777

**Q.** With GGACUGAGCUUCUCAAUGUTT against FOLR1 as the sequence, how does the median seed-adjusted z-score read?
**A.** active: -1.31

**Q.** For GAUUGUAGUGUAUCAAGAATT against KIAA1804, which median seed-adjusted z-score is on record?
**A.** inactive: -0.211

**Q.** Which median seed-adjusted z-score does the source give for GAACAAAAAUUGAACACUUTT against SCP2 here?
**A.** inactive: 0.413

**Q.** Which median seed-adjusted z-score does the source give for GACUGAGAGUUCUUGAGGATT against GJA9 here?
**A.** inactive: -0.00119

**Q.** With CCACCAACCUAGGAGUUGUTT against GRM5 as the sequence, how does the median seed-adjusted z-score read?
**A.** inactive: -0.227

**Q.** With GGAUGAGUAUGGACAGUUUTT against PGC as the sequence, how does the median seed-adjusted z-score read?
**A.** inactive: 0.884

**Q.** For GCAAAUGACUUGGAGUGUUTT against DNER, which median seed-adjusted z-score is on record?
**A.** inactive: -0.316

**Q.** For CGGUGUACAAGGCGACUUATT against MOS, which median seed-adjusted z-score is on record?
**A.** inactive: 0.105

**Q.** Which median seed-adjusted z-score does the source give for GGUAAGGUAGAGUCAAUUATT against ATP6V1A here?
**A.** inactive: -0.0106

**Q.** With GGCAUACCAGGAGACAAUATT against RAG2 as the sequence, how does the median seed-adjusted z-score read?
**A.** inactive: 0.138

**Q.** For GCAUAUACCAUCGCUGUAATT against SUPT16H, which median seed-adjusted z-score is on record?
**A.** active: 1.2

**Q.** Which median seed-adjusted z-score does the source give for GGAUUAGCGAGAAGAAAAUTT against CSNK1D here?
**A.** inactive: 0.202

**Q.** For GCAUGAACGACCCAGAAUATT against RNF31, which median seed-adjusted z-score is on record?
**A.** inactive: -0.687

**Q.** For CAUCCACAACCUUGAGGAATT against SIGLEC12, which median seed-adjusted z-score is on record?
**A.** inactive: 0.226

**Q.** Which median seed-adjusted z-score does the source give for AGCAAGAAGUGGACAUAGATT against MXD4 here?
**A.** inactive: 0.688

**Q.** With UCCUAAGGCUUAUGAAGUUTT against ADH1B as the sequence, how does the median seed-adjusted z-score read?
**A.** inactive: 0.325

**Q.** Which median seed-adjusted z-score does the source give for GCUGACGAAUUCAAAGUCATT against APOA4 here?
**A.** inactive: 0.195

**Q.** With CCUUAGUACUCUUCUAGCATT against MSX1 as the sequence, how does the median seed-adjusted z-score read?
**A.** inactive: 0.757

**Q.** Which median seed-adjusted z-score does the source give for GGUUUCUAAUGAUAACAAATT against PCDHB12 here?
**A.** inactive: -0.0664

**Q.** For CACUUGCUAAGGAUCCUAATT against PPT1, which median seed-adjusted z-score is on record?
**A.** inactive: 0.727

**Q.** With ACAGCGACCUUGCAAAGAATT against ZNF496 as the sequence, how does the median seed-adjusted z-score read?
**A.** inactive: -0.971

**Q.** Which median seed-adjusted z-score does the source give for GGAUAUCACAGAAGGAUAUTT against ANXA4 here?
**A.** inactive: -0.0932

**Q.** For GGAUGAUGACAGUCACGAATT against CARD11, which median seed-adjusted z-score is on record?
**A.** inactive: 0.22

**Q.** Which median seed-adjusted z-score does the source give for CACAGAUCAUUAUCUAAAUTT against LONP2 here?
**A.** active: 1.52

**Q.** With GGUGGAAUUUUCAAGAUAATT against RGN as the sequence, how does the median seed-adjusted z-score read?
**A.** inactive: 0.132

**Q.** With GGAUCUAUUUUGGACCGAATT against ABCE1 as the sequence, how does the median seed-adjusted z-score read?
**A.** inactive: -0.0527

**Q.** With UGAUGAUGGGUGUCCAUUUTT against DMRT3 as the sequence, how does the median seed-adjusted z-score read?
**A.** inactive: 0

**Q.** For GGAAUCUGCUUACAGGUCATT against IPO7, which median seed-adjusted z-score is on record?
**A.** inactive: -0.143

**Q.** Which median seed-adjusted z-score does the source give for CCCUUGCCCUAGAUAGUUUTT against HYAL2 here?
**A.** inactive: 0.056

**Q.** For GUACCGGAGGGAUAUCAGATT against CDH18, which median seed-adjusted z-score is on record?
**A.** inactive: 0.21

**Q.** Which median seed-adjusted z-score does the source give for CGAUUAUGUUUGGUCCAGATT against CANX here?
**A.** inactive: 0.471

**Q.** Which median seed-adjusted z-score does the source give for AGACAUUAAAGAAUGCAUATT against LHX4 here?
**A.** inactive: 0.0795

**Q.** For AGUUCUUGGUUAUUGGAAATT against RAB4A, which median seed-adjusted z-score is on record?
**A.** inactive: 0.0022

**Q.** Which median seed-adjusted z-score does the source give for GCAUUGGACUCAUCACCAATT against GPR12 here?
**A.** inactive: 0.437

**Q.** Which median seed-adjusted z-score does the source give for CAUCUAUCUGGAGAGCAAATT against JMJD3 here?
**A.** inactive: 0.871

**Q.** For GGCCCUGAUUGAUCAUGGATT against CYP2C18, which median seed-adjusted z-score is on record?
**A.** inactive: 0.229

**Q.** For CCCAAUUCAGAUUACUACATT against POLN, which median seed-adjusted z-score is on record?
**A.** inactive: -0.129

**Q.** With CCUAUCUUGUGGACAACAATT against PI4K2B as the sequence, how does the median seed-adjusted z-score read?
**A.** inactive: 0.0345

**Q.** With CUAUGGAUGUUGAUGUAGATT against SIN3A as the sequence, how does the median seed-adjusted z-score read?
**A.** inactive: -0.384

**Q.** Which median seed-adjusted z-score does the source give for GAUGGAGUGUCGGAACUCATT against EIF4EBP1 here?
**A.** inactive: -0.161

**Q.** For GGGAUUGAGUUAAAACUAUTT against SOX7, which median seed-adjusted z-score is on record?
**A.** inactive: -0.387

**Q.** For GUAUCAUAACAUUCGGGUATT against SSH2, which median seed-adjusted z-score is on record?
**A.** inactive: 0.357

**Q.** Which median seed-adjusted z-score does the source give for AGGCUGUUGUUAUAGCUCUTT against ZP4 here?
**A.** inactive: 0.0498

**Q.** For GAGGGAGAGUAGAUCCACATT against LAIR1, which median seed-adjusted z-score is on record?
**A.** inactive: -0.0897

**Q.** Which median seed-adjusted z-score does the source give for GAAUGGGUUUGAAGGUAGATT against LARS here?
**A.** inactive: -0.788

**Q.** With CACUUUAGAUGAUAUCAGATT against PPP3CA as the sequence, how does the median seed-adjusted z-score read?
**A.** inactive: 0.74

**Q.** Which median seed-adjusted z-score does the source give for GCGUGAAGAUCAAUCAUUUTT against CACNG8 here?
**A.** inactive: 0.214

**Q.** With CGAUGUAUCUCCUAGGCUATT against COPB2 as the sequence, how does the median seed-adjusted z-score read?
**A.** inactive: -0.61

**Q.** For GGAUCGCUGUCUCUAACUUTT against RRM1, which median seed-adjusted z-score is on record?
**A.** active: -5.51

**Q.** With ACAAGCACCUAGACCAUGATT against ANGPTL4 as the sequence, how does the median seed-adjusted z-score read?
**A.** active: 1.37

**Q.** With CGGGUUUCAUCAAAGUGCATT against RASSF5 as the sequence, how does the median seed-adjusted z-score read?
**A.** inactive: 0.11

**Q.** Which median seed-adjusted z-score does the source give for ACUACUUUGGAAUCCCAUATT against ARSG here?
**A.** inactive: -0.133

**Q.** With CUACAGGUUUAUAUCCAUATT against EMG1 as the sequence, how does the median seed-adjusted z-score read?
**A.** inactive: -0.0627
